{"sequences": {"note": "Sequences of proteins named here, by UniProt entry; tags and fusion partners are left off.", "UniProt P18090, whole entry, looked up": "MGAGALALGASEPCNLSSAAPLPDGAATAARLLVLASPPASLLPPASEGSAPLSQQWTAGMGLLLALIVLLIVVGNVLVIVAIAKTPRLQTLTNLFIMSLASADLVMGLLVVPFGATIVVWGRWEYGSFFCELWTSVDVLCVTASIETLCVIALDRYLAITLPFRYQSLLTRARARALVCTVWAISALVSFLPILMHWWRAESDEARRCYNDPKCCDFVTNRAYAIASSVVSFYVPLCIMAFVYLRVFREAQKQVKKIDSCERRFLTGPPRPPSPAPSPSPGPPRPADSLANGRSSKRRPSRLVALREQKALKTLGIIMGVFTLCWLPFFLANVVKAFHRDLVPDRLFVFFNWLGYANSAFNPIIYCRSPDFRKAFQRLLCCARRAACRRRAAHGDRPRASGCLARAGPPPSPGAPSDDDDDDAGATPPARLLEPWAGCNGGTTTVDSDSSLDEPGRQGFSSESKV", "UniProt P19328, whole entry, looked up": "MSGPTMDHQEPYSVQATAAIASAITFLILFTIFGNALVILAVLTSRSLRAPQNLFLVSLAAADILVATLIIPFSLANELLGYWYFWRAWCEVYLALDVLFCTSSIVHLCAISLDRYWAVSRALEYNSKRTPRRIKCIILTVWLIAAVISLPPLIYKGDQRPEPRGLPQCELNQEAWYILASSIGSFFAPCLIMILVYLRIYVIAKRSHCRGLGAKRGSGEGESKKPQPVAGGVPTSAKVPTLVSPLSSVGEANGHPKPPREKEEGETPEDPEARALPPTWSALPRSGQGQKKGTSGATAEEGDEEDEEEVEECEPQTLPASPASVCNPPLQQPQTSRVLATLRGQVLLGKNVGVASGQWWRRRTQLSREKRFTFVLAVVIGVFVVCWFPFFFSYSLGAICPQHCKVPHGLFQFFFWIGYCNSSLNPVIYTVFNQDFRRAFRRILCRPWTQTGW", "UniProt P14600, whole entry, looked up": "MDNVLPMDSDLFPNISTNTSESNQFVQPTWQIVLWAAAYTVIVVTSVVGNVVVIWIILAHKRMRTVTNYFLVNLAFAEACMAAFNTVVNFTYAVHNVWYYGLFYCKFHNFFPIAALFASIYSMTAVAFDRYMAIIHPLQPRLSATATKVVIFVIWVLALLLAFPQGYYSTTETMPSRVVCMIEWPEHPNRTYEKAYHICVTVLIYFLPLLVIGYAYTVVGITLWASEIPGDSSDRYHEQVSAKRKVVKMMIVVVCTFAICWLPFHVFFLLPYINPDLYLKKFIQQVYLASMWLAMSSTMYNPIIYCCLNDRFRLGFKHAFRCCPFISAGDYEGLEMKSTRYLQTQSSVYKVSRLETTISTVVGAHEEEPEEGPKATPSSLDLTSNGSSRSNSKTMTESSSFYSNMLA", "UniProt P16177, whole entry, looked up": "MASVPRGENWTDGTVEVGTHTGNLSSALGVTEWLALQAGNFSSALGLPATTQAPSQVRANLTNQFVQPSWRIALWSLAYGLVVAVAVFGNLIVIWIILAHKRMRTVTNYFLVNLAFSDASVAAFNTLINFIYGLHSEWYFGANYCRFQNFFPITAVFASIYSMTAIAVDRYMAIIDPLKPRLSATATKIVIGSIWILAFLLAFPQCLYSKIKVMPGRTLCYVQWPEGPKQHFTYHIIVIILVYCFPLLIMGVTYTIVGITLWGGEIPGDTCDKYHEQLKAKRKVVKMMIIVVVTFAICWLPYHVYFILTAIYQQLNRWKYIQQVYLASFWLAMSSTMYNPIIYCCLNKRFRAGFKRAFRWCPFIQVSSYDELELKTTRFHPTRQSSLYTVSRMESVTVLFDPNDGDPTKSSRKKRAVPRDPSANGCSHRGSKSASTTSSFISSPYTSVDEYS"}, "source": "PubChem BioAssay (EPA / NIEHS)", "note": "Inconclusive means that the source gave no clear call. Such entries were picked first, then a sample of the others. Potencies of inconclusive entries are doubtful fits and often do not repeat. Activity calls are given as the source filed them. How the source made its calls: active means hit-call score of the fitted dose curve at least 0.9, where 1 is the maximum; inconclusive means response in the unintended direction; inactive means score below 0.9."}
{"target": "rat Adrenergic Receptor, Beta (Adrb), Non-selective Binding, Adrb1 (gene 24925) (UniProt P18090)", "test": "NVS_GPCR_rAdrb_NonSelective: NovaScreen (NVS) G Protein-Coupled Receptor Assay for rat Adrenergic Receptor, Beta (Adrb), Non-selective Binding (AID 2283298)", "outline": "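Non-selective beta-adrenergic radioligand binding in rat cortical membranes, 1 h incubation, filter-based scintillation read-out. Primary screen 25 uM in duplicate; hits retested in concentration-response up to 50 uM, DMSO baseline.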"}
{"smiles": "CC(C)c1ccc(C(=O)N=C(N)N)cc1S(C)(=O)=O", "outcome": "inactive"}
{"smiles": "CCOC(=O)C(C)Oc1ccc(Oc2nc3ccc(Cl)cc3o2)cc1", "note": "(stereo unspecified)", "AC50": "inconclusive: 0.113 µM"}
{"smiles": "CCOC(=O)CCC(=O)OCC", "AC50": "inconclusive: 0.165 µM"}
{"smiles": "CCCCC(CC)COP(=O)(OCC(CC)CCCC)OCC(CC)CCCC", "note": "(stereo unspecified)", "AC50": "inconclusive: 4.96 µM"}
{"smiles": "CCOC(=O)c1ccc(C2CCC(NC[C@H](O)COc3ccc(O)c(NS(C)(=O)=O)c3)CC2)cc1", "note": "(stereo partly specified)", "AC50": "active: 8.67 µM"}
{"smiles": "CC=Cc1ccc(O)c(OC)c1", "AC50": "inconclusive: 25 µM"}
{"smiles": "CCCOc1sc(C(=O)N2CCC(c3cc(CN)ccc3F)CC2)c(C)c1Br", "AC50": "active: 3.95 µM"}
{"target": "Adra2b (gene 24174) (UniProt P19328)", "test": "NVS_GPCR_rmAdra2B: NovaScreen (NVS) G Protein-Coupled Receptor Assay for hybird cells Adrenergic, Alpha 2B Receptor (Adra2B) (AID 2283306)", "outline": "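Radioligand filter-binding assay on membrane proteins from neuroglioma/blastoma hybrid cells (rodent), 1 h after dosing; scintillation counting, loss of signal vs DMSO. Primary screen in duplicate at 25 uM, actives then run in concentration series.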"}
{"smiles": "CCOC(=O)CCC(=O)OCC", "AC50": "inconclusive: 6.54 µM"}
{"smiles": "Cc1nc(C)nc(N2C[C@@H](C)N(c3ccnc([C@@H](C)O)n3)[C@@H](C)C2)n1", "outcome": "inactive"}
{"smiles": "CCn1nc(C)c2c1C(=O)NCC(c1ccc(O)cc1)=N2", "AC50": "inconclusive: 1.45 µM"}
{"target": "rat Neurokinin-1 Receptor (NK1), Tacr1 (gene 24807) (UniProt P14600)", "test": "NVS_GPCR_rNK1: NovaScreen (NVS) G Protein-Coupled Receptor Assay for rat Neurokinin-1 Receptor (NK1) (AID 2283309)", "outline": "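Rat submaxillary gland membranes; radioligand displacement read by filter-based scintillation counting after 1 h. Primary screen in duplicate at 25 uM; actives retested in concentration series; loss of binding fitted versus DMSO.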"}
{"smiles": "CCOC(=O)c1ccc(C2CCC(NC[C@H](O)COc3ccc(O)c(NS(C)(=O)=O)c3)CC2)cc1", "note": "(stereo partly specified)", "outcome": "inactive"}
{"smiles": "CCn1nc(C)c2c1C(=O)NCC(c1ccc(O)cc1)=N2", "outcome": "inactive"}
{"smiles": "COc1cc(C(=O)NC2CCN(C)CC2)ccc1Nc1ncc2c(n1)N(C1CCCC1)CC(F)(F)C(=O)N2C", "AC50": "active: 13.9 µM"}
{"smiles": "COc1cc(C(C)C)c2c(c1)S(=O)(=O)N(COc1cc(=O)n3cccc(OCCN4CCCCC4)c3n1)C2=O", "AC50": "inconclusive: 1.54 µM"}
{"target": "rat Neurokinin-3 Receptor (NK3), Tacr3 (gene 24808) (UniProt P16177)", "test": "NVS_GPCR_rNK3: NovaScreen (NVS) G Protein-Coupled Receptor Assay for rat Neurokinin-3 Receptor (NK3) (AID 2283310)", "outline": "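Rat cortical membranes; radioligand binding with filtration and scintillation counting, 2 h after dosing. Primary screen in duplicate at 25 uM, then concentration-response up to 50 uM; loss of binding signal relative to DMSO.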"}
{"smiles": "CCCCc1nc2cccnc2n1Cc1ccc(-c2ccccc2-c2nnn[nH]2)cc1", "AC50": "active: 5.16 µM"}
{"smiles": "O=C1c2ccccc2C(=O)N1CCc1noc(-c2ccc(CN3CCCCCC3)s2)n1", "outcome": "inactive"}
{"smiles": "Cc1occc1C(=O)Nc1ccc(C(=O)N2CCC(F)(F)/C(=C\\C(=O)N3CCC(N4CCCCC4)CC3)c3ccccc32)cc1", "AC50": "inconclusive: 0.0124 µM"}
{"target": "Voltage-dependent N-type calcium channel subunit alpha-1B (Rattus norvegicus) (UniProt Q02294)", "test": "NVS_IC_rCaChN: NovaScreen (NVS) Ion Channel Assay for rat Calcium Channel, Type N (CaChN) (AID 2283317)"}
{"smiles": "CCCCCCC(=O)OCC", "AC50": "inconclusive: 46.2 µM"}
{"smiles": "CCCOc1sc(C(=O)N2CCC(c3cc(CN)ccc3F)CC2)c(C)c1Br", "AC50": "inconclusive: 23.2 µM"}
{"smiles": "C[C@@H](Oc1ccc(CNC(=O)c2cccnc2Oc2ccc3c(c2)OCO3)c(F)c1)C(=O)O", "outcome": "inactive"}
{"smiles": "CC(=O)OCCC(C)C", "outcome": "inactive"}
